According to patent US20260374810A1, “P53-ACTIVATING PEPTIDE AND COMPOSITION CONTAINING SAME” (SUPADELIXIR INC., priority 2023, published 2026):
Part of at least one peptide drawing is inferred or uncertain, most often the ends. Some entries repeat one wording, which the source may state once for all of them. Ends that are not written are not given here. Peptide text beside a SMILES is read from it.

system: p53 and RNA Polymerase II (POLII); assay: In situ Proximity Ligation Assay (PLA) of physical binding between p53 and POLII in HaCaT human keratinocytes; format: cell-based; conditions: peptide 1 or 10 μM, 30 minutes, compared to untreated control group

| Molecule | interaction between p53 and POLII (PLA signal) |
| --- | --- |
| CC(C)C[C@H](NC(=O)[C@H](CCCCN)NC(=O)[C@H](Cc1c[nH]c2ccccc12)NC(=O)[C@@H](N)CC(C)C)C(=O)O [p53 Pep1, Leucine-Tryptophan-Lysine-Leucine] (H-LWKL-OH) | significantly enhances an interaction between p53 and POLII |
| CC(C)C[C@H](NC(=O)[C@H](CC(=O)O)NC(=O)[C@H](CO)NC(=O)[C@@H](N)Cc1ccccc1)C(=O)O [p53 Pep2, Phenylalanine-Serine-Aspartic acid-Leucine] (H-FSDL-OH) | significantly enhances an interaction between p53 and POLII |
| C[C@@H](O)[C@H](NC(=O)[C@H](CCC(=O)O)NC(=O)[C@@H](N)CCC(N)=O)C(=O)O [p53 Pep3, Glutamine-Glutamic acid-Threonine] (H-Gln-Glu-Thr-OH) | significantly enhances an interaction between p53 and POLII |
| N[C@@H](CC(=O)O)C(=O)N[C@@H](CO)C(=O)N[C@@H](Cc1ccccc1)C(=O)O [p53 Pep4, Aspartic acid-Serine-Phenylalanine] (H-Asp-Ser-Phe-OH) | significantly enhances an interaction between p53 and POLII |
| CC(C)C[C@H](NC(=O)[C@H](CCC(=O)O)NC(=O)[C@@H](N)CC(C)C)C(=O)O [p53 Pep6, Leucine-Glutamic acid-Leucine] (H-Leu-Glu-Leu-OH) | significantly enhances an interaction between p53 and POLII |
| LNEAL [p53 Pep5, Leucine-Asparagine-Glutamic acid-Alanine-Leucine] | significantly enhances an interaction between p53 and POLII |
